In all, about 200,000 compounds went through this assay and about 25 (0.01%) were called active. The inconclusive results got no clear call from the source; some entries with a clear call stand among them for comparison. The call rests on the fitted dose curve; in most records, active means well fitted inhibition curve with a large enough effect in the signal ratio, with a control signal flat (not every such curve was filed as active); inconclusive means small, poorly fitted or top-dose-only effect, or effect the other way, or a change in a side signal; inactive means flat fitted curve, though single readings scatter; the % refers to the signal ratio. Where the call is inconclusive, the potency comes from a doubtful curve fit.
Experiment: qHTS Assay for Modulators of Lamin A Splicing
Settings: HeLa LMNA splicing GFP/RFP minigene ratio, 48 h; ratio change, negative = inhibition: at 46.1 µM (top of the series) unless noted
Source text: NCGC Assay Overview: Hutchinson-Gilford Progeria Syndrome (HGPS) is a pediatric premature aging disease caused by a spontaneous mutation in the lamin A/C (LMNA) gene. The mutation activates a cryptic splice site in the LMNA pre-mRNA which results in production of a pre-lamin A protein that cannot be processed properly. The mutant protein accumulates in the nucleus and negatively affects numerous cellular functions. Correction of the splicing defect in HGPS patient cells using a targeted oligonucleotide (exo11) leads to reversal of the cellular disease phenotypes. To identify small molecule modulators of aberrant LMNA splicing, a homogenous assay was constructed in HeLa cells that used a GFP containing minigene to report on correction of aberrant splicing in lamin A and a RFP (DsRed2) to report on cell viability, uniformity and nonspecific effects on the assay signal. This assay was adapted to laser-scanning microplate cytometry (Acumen, TTP Labtech) where miniaturization of the assay to a 1,536-well plate format was possible. References: Bowen, W. P.; Wylie, P. G. Application of Laser-Scanning Fluorescence Microplate Cytometry in High Content Screening. Assay Drug Dev Technol 2006;4:209-221. Scaffidi P, Misteli T. Reversal of the cellular phenotype in the premature aging disease Hutchinson-Gilford progeria syndrome. Nat.
NCGC Assay Protocol Summary: Reagents/Controls: Stable clones expressing DsRed2 and lamin A-EGFP were generated by Cell and Molecular Technologies in S3 HeLa cells. HeLa cells were prepared for the assay when they were 70-90% confluent. The cells were counted and resuspended in Opti-MEM I (no phenol red; Gibco), 2% FBS, 1% penicillin/ streptomycin (Gibco) at concentration of 120 cells/uL concentration. The suspension was passed through a Falcon basket filter with pore size 40um (Beckton Dickson). Control titrations: column […] 1536-well plate contained a sixteen point titration (1:2 dilutions) in duplicate of ancitabine (Sigma: A8598) beginning at 40 uM final concentration. Column 2 contained a sixteen point titration (1:2 dilutions) of cycloheximide beginning at 1.4 mM final concentration. Column 3 contained ancitabine at 40 uM and column 4 contained was the vehicle control (0.5% DMSO final concentration). Assay Steps: 5 uL of HeLa cells were plated in Aurora LoBase black clear bottom (cyclic-olefin polymer) 1536-well plates at a final density of 600 cells/well. Controls and library compounds were added with a 1536-well pin array using the Kalypsys pin-tool. The plates were then incubated for 48 hrs in a cell-culture incubator (37 °C; 5% CO2, 98% humidity). Following incubation the plates were read on the Acumen Explorer using the 488 nm laser. Data was collected on objects between 10 and 100 um in size. Cell objects were defined by a 15 um width x 10 um depth filter. The ratio of the total object intensity in PMT1 (500-530 nm emission; GFP) over PMT3 (575-640 nm emission; RFP) was calculated for analysis. Keywords: NIH Roadmap, MLSCN, MLI, MLSMR, qHTS, NCGC, lamin A, Progeria, RNA splicing.
On the % scale 0 is the no-effect control and ±100 the full control effect; potency means the concentration at half of the fitted maximal effect.

SMILES | ratio change, negative = inhibition | Potency
CCCCCCCCCCCCCCCCCC(=O)OC[C@@H](O)[C@H]1OC[C@H](O)[C@H]1O | inconclusive: -16.8% | 
COc1ccc(N2CCN(c3cc(C)c4ccc(C)cc4n3)CC2)cc1 | inconclusive: -23.8% [at 46 µM] | 
NS(=O)(=O)c1ccc(CNC(=O)CCC2CCCCC2)cc1 | inconclusive: 10.5% | 
Brc1ccc(-c2csc(Nc3nc(-c4ccc(Br)cc4)cs3)n2)cc1 | inactive: 15.4% [at 46 µM] | 
O=C(COC(=O)c1oc2ccccc2c1CSc1ccc(Cl)cc1)NC1CCCC1 | inactive: -7.68% | 
CCCc1nn2c(=O)cc(COC(=O)c3cccs3)nc2s1 | inconclusive: -9.1% [at 46 µM] | 
CN(c1ccc(C(=O)NCc2ccco2)cc1)S(C)(=O)=O | inactive: -2.62% | 
O=S(=O)(c1cccc(F)c1)N1CCC(CO)(Cc2cccc(F)c2)CC1 | inconclusive: -1.37% [at 46 µM] | 
Cc1[nH]c2ccccc2c1C(=O)CCl |  | inconclusive: 10 µM [inhibitor, partial curve]
CCCc1nc(SCc2ccc(Cl)cc2Cl)n[nH]1 | inactive: 1.16% | 
COc1cc2c(-c3ccccc3O)nc3c(c(C)nn3-c3ccccc3)c2cc1OC | inactive: 0.874% | 
O=c1c(-c2cc(F)cc(F)c2)nc2cnc(N3CCOCC3)nc2n1CCc1ccccc1 | inconclusive: 32.7% | 
COc1ccc(-c2c(C#N)c(N)nc3c2CCc2ccccc2-3)cc1OC |  | inconclusive: 35.5 µM [cytotoxic, single point]
O=c1ccc(Cc2ccc(Cl)cc2)n[nH]1 | inconclusive: -19.5% [at 46 µM] | 
CCN(CCCNC(=O)c1ccc(Sc2ccc(F)cc2)c(NC(C)=O)c1)c1ccccc1 | inconclusive: -30.1% [at 46 µM] | 
COc1cc(NC(=O)N2CCN(c3cc(-c4noc(C)n4)ccc3C)CC2)cc(OC)c1OC | inconclusive: -3.65% [at 46 µM] | 
O=c1[nH]c(=O)n(C2C[C@H](O)[C@@H](CO)O2)cc1C(F)(F)F (stereo not given in full) | inconclusive: -14% | 
CC(=O)c1ccc(NC(=S)Nc2ccc(N3CCOCC3)cc2)cc1 | inconclusive: 6.41% [at 9.22 µM] | 
COC(=O)c1ccc(OCC(=O)c2ccc(O)cc2O)cc1 | inconclusive: -42.9% | 
O=S(=O)(NCC(c1ccco1)N1CCN(c2ccc(F)cc2)CC1)c1ccc(F)cc1 (stereo not given) | inconclusive: -36.7% | 

SMILES | ratio change, negative = inhibition | Potency
Cc1ccc(C2=CC(C)(c3ccc(C)cc3)Nc3nc(C(F)(F)F)nn32)cc1 (stereo not given) | inconclusive: -24.4% | 
O=C(/C=C/c1ccccc1)N1CCN(Cc2cc(=O)n3nc(-c4ccccc4)sc3n2)CC1 | inactive: 0.251% [at 46 µM] | 
CON(C)c1nc(OCCNC(=O)COc2ccc(Cl)cc2C)nc(N(C)C)n1 | inconclusive: -32.6% | 
CCOC(=O)c1c(C)[nH]c(C(=O)COC(=O)COc2ccccc2C)c1C | inconclusive: -18.5% | 
CNC(=O)COC(=O)/C=C/c1ccc(F)cc1 | inconclusive: -4.84% [at 46 µM] | 
CCN(c1ccc(OC)cc1)c1ncnc2nc[nH]c12 | inactive: -11.3% | 
O=C(Nc1ccc(Cl)cc1)N1CCOC12CCC1(CC2)OCCO1 | inconclusive: 41% [at 46 µM] | 
CC(=O)c1ccc(NC(=O)COC(=O)c2c3c(nc4ccccc24)/C(=C\c2cccs2)CCC3)cc1 | inconclusive: -26.9% | 
O=S(=O)(Nc1cccc(-c2ccc(N3CCOCC3)nn2)c1)c1ccc(F)cc1F | inconclusive: -12.4% [at 46 µM] | 
COc1cccc(NC=C2C(=O)OC3(CCCCC3)OC2=O)c1 | inconclusive: 32.3% | 
CCOc1ccccc1NC(=O)c1cc(S(=O)(=O)NC2CCCC2)ccc1F | inconclusive: -13% [at 46 µM] | 
COc1ccc(Cc2nnc(SCC(=O)N3CCN(c4ccccc4)CC3)o2)cc1 | inconclusive: -34.3% | 
O=S(=O)(CCc1ccccc1)/N=C/c1cccs1 | inactive: -3.9% | 
CC(/C=C/c1ccccc1F)=N\NC(=O)C(C)C | inconclusive: -4.1% | 
CC1(C)N=C(SCC(=O)Nc2ccc(Cl)cc2)C(c2ccc(Cl)cc2)=N1 | inconclusive: -30.3% | 
CC1=C(C(=O)NCc2ccccc2C)C2(CCCCCC2)OC1=O | inconclusive: 10.8% [at 46 µM] | 
Cn1cc(CN(Cc2ccccn2)C[C@@H]2CCC(=O)N2)c(-c2ccccc2F)n1 | inconclusive: 31.1% [at 46 µM] | 
O=C(NNC1=NCCC1)c1cccc(S(=O)(=O)N2CCCC2)c1 | inactive: 4.69% | 
C=CCNC(=S)Nc1c(N)n(C)c(=O)n(C)c1=O |  | inconclusive: 0.398 µM [activator, full curve, poor fit]
COc1ccccc1NC(=O)c1ccc(-c2nn(C)c(=O)c3ccccc23)cc1 |  | inconclusive: 35.5 µM [inhibitor, single point]

Taken from above.
In ratio change, negative = inhibition, CC(=O)c1ccc(NC(=S)Nc2ccc(N3CCOCC3)cc2)cc1 reads inconclusive: 6.41% [at 9.22 µM]
In ratio change, negative = inhibition, O=c1[nH]c(=O)n(C2C[C@H](O)[C@@H](CO)O2)cc1C(F)(F)F (stereo not given in full) reads inconclusive: -14%
In ratio change, negative = inhibition, CCCc1nn2c(=O)cc(COC(=O)c3cccs3)nc2s1 reads inconclusive: -9.1% [at 46 µM]

— PubChem BioAssay AID1487 (National Center for Advancing Translational Sciences (NCATS), 2009)
